Data: the supplement of paper PMC10849652
The other results are listed elsewhere or left out.

Chains of the proteins cited; added tags and fusions are not shown. Lines headed by an entry give the natural chain unless they say otherwise; changes in a name come on top.
UniProt Q14116, whole entry, looked up: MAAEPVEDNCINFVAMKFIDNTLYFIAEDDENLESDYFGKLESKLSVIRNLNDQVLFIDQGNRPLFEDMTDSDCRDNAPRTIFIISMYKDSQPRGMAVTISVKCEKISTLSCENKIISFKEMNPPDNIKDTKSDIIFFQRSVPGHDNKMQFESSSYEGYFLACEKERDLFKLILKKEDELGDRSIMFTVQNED
UniProt Q13123, whole entry, looked up: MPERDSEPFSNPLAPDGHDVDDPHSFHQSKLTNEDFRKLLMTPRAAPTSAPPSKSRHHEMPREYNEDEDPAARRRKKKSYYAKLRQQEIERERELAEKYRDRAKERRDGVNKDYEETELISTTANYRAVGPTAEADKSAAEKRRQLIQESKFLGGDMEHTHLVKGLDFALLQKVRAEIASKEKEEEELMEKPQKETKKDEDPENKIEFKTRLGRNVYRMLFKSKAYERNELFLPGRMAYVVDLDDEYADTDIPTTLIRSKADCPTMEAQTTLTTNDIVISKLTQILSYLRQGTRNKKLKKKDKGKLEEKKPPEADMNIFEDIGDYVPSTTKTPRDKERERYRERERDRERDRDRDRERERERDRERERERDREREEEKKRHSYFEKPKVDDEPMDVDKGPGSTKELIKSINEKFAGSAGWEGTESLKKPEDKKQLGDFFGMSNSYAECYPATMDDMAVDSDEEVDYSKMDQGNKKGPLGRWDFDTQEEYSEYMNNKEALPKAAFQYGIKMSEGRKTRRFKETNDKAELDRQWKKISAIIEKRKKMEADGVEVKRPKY
UniProt P41134: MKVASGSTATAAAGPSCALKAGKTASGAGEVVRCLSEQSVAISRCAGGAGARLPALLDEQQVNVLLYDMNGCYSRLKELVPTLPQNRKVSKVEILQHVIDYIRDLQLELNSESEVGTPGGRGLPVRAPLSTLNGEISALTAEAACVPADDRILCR
UniProt Q9Y547: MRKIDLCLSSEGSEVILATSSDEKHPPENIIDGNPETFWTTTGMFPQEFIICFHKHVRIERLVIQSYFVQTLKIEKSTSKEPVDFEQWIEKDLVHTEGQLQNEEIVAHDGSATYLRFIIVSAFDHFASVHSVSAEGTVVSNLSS
UniProt P32019: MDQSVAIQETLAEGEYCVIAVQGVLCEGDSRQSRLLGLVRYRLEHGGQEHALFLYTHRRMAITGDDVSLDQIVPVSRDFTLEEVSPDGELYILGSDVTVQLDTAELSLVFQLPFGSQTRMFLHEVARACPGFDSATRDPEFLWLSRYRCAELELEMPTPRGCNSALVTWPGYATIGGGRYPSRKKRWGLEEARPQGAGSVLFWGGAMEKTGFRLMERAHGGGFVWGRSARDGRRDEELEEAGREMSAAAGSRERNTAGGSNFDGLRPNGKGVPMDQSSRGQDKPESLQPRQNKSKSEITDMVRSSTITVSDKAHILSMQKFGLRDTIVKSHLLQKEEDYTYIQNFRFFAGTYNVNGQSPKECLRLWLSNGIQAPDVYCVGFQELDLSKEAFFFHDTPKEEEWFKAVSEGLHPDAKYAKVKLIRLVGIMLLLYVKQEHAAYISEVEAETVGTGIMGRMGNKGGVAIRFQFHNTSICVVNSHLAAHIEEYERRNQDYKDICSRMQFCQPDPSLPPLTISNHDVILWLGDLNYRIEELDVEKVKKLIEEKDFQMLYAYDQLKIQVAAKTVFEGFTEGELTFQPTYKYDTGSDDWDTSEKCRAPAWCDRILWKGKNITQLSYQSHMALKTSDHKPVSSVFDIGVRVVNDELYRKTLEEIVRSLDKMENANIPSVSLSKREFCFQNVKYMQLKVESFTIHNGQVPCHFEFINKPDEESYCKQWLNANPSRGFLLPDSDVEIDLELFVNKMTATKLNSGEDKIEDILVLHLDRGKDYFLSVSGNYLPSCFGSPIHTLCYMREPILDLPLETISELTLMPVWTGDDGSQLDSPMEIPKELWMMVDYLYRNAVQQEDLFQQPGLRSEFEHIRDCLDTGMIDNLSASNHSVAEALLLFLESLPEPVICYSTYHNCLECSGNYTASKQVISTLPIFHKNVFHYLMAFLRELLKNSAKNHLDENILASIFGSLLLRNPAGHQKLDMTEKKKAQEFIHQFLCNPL
UniProt P01876, whole entry, looked up: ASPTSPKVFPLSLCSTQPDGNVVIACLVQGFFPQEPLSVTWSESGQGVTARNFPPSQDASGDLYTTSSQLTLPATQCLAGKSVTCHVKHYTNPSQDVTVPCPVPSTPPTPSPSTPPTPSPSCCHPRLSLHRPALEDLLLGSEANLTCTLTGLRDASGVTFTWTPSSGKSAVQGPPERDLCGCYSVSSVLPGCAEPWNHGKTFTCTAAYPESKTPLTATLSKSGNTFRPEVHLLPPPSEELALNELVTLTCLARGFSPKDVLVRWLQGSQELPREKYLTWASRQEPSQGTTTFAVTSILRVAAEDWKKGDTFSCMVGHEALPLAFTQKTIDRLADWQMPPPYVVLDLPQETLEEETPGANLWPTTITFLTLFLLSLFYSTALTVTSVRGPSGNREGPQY
UniProt Q9NWB7: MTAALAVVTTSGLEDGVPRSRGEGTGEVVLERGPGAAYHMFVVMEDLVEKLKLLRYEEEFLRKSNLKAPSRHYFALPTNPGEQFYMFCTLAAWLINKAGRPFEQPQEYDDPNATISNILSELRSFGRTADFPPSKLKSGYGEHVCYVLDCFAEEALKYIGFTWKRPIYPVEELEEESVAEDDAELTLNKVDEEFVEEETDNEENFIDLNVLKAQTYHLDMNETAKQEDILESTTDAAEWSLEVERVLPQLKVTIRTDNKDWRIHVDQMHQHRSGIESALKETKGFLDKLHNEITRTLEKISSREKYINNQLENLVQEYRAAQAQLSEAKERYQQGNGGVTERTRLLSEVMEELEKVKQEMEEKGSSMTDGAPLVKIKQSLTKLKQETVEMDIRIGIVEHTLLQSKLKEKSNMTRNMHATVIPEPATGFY
UniProt P51553: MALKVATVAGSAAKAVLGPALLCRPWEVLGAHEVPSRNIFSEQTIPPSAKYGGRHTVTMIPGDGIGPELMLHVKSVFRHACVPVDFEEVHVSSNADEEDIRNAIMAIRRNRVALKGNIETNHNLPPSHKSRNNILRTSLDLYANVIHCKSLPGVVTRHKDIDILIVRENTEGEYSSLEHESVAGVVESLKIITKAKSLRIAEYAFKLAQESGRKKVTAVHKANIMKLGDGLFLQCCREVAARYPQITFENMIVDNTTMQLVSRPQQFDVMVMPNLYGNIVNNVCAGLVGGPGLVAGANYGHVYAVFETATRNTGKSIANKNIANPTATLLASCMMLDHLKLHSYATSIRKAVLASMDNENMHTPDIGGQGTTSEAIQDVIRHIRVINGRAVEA
UniProt Q9NX62: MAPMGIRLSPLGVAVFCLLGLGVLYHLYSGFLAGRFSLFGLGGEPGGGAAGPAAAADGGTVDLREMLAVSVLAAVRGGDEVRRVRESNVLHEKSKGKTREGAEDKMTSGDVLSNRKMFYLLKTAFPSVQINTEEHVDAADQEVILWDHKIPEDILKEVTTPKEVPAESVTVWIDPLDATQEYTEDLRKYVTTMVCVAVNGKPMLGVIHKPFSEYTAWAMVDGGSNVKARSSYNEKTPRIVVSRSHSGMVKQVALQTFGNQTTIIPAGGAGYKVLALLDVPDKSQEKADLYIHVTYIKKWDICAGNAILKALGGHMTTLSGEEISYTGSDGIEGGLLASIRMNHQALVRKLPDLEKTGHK
UniProt Q12906, whole entry, looked up: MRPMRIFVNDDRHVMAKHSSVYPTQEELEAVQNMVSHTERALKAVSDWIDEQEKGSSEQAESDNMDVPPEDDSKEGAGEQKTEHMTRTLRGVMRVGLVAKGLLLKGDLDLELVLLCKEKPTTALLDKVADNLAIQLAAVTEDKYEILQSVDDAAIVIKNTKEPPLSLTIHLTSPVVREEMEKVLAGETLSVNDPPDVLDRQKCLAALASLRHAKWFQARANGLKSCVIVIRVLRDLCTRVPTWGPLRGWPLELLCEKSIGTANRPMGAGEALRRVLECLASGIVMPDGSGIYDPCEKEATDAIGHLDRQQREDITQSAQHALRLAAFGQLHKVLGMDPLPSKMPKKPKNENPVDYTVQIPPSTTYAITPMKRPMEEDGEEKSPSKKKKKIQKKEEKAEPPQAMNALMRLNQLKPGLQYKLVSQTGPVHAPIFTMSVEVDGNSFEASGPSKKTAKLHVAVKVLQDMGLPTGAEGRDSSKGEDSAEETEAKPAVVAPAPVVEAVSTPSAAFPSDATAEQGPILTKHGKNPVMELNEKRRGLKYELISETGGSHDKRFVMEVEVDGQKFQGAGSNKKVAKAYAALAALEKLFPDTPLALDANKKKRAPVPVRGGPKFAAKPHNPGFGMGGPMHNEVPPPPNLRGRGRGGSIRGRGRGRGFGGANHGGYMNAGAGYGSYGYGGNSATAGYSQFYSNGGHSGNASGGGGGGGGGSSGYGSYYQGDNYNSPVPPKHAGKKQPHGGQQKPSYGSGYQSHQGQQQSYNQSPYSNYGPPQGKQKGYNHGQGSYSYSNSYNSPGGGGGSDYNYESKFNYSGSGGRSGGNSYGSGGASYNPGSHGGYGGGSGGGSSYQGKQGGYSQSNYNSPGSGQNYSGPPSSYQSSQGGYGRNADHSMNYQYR
UniProt Q96EW2: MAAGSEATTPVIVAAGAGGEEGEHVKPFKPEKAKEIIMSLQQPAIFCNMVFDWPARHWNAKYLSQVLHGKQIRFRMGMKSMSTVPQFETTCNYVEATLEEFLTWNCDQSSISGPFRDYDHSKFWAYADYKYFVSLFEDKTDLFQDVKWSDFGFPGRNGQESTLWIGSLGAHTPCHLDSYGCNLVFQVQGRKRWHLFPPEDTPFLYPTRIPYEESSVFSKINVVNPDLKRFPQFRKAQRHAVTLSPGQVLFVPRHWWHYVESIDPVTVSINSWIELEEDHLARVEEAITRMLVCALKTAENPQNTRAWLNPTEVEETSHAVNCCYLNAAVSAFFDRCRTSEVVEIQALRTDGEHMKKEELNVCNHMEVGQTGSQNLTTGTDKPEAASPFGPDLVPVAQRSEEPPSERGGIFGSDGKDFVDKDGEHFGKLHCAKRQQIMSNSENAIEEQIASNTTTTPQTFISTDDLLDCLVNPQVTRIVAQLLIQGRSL
UniProt P13598: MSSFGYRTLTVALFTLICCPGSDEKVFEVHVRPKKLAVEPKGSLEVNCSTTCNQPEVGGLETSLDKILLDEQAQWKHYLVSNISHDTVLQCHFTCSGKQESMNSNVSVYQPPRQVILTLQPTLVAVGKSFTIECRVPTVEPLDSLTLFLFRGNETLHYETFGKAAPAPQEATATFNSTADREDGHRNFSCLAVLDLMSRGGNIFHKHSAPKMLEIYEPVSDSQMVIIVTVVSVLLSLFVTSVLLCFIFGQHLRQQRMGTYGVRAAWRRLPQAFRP
UniProt Q8NBZ0, whole entry, looked up: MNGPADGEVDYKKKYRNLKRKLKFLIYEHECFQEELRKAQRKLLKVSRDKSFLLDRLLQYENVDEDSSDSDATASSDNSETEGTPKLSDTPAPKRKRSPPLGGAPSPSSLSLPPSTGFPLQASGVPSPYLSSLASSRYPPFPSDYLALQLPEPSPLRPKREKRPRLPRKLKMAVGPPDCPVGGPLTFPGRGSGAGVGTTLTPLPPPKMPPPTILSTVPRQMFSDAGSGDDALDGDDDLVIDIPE
UniProt P38935: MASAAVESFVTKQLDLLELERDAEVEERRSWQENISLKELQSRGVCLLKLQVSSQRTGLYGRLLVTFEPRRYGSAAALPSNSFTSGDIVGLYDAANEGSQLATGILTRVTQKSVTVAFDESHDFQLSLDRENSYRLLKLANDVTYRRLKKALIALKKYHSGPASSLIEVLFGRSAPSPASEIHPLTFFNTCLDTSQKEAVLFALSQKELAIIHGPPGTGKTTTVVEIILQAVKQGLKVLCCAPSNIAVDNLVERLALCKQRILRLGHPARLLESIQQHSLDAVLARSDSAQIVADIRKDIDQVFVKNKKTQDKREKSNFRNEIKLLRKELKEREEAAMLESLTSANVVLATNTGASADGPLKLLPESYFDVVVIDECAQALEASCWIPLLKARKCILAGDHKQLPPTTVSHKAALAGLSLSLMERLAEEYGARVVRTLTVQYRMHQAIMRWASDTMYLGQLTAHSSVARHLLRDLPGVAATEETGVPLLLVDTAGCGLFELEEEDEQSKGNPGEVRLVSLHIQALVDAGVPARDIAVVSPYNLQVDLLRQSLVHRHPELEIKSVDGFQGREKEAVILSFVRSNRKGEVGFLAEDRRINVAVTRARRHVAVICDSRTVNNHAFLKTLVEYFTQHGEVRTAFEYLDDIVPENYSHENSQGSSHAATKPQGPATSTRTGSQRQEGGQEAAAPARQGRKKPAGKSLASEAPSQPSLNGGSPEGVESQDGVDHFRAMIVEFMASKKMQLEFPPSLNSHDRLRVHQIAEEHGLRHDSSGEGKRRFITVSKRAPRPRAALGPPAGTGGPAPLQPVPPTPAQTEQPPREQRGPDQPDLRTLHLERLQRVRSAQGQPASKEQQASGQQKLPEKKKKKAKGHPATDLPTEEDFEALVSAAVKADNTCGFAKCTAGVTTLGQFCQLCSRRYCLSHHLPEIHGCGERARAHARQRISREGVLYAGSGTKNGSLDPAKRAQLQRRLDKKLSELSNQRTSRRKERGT

compound: Cc1cn(-c2cc(NC(=O)c3ccc(C)c(Nc4nccc(-c5cccnc5)n4)c3)cc(C(F)(F)F)c2)cn1 [nilotinib]; experiment: log2 fold change, soluble protein after heating vs DMSO (PISA); higher = thermal stabilisation; K562 lysate, 10 uM; active = over 0.2 and 3.5 SD of the protein, either way, in both replicates (recomputed)
Method in brief: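 Quantification was by TMTpro 16plex LC-MS/MS with equalised channel sums, applied to the supernatant after 21,000xg for 90 min. Samples were crude K562 extract at 1 mg/mL protein in PBS pH 7.4 with 1 mM MgCl2, treated with 10 μM compound for 30 min, heated for 3 min across 48°C-58°C, pooled and brought to 0.5% NP-40 at 4°C. Values are log-two fold changes in thermal stability relative to solvent controls, from duplicates.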

log2 fold change, inactive:
IL18 (UniProt Q14116) 0.002, IK (UniProt Q13123) -0.066, ID1 (UniProt P41134) 0.073, IGSF3 (UniProt O75054) 0.003, IMPDH2 (UniProt H0Y4R1) 0.106, HSPB11 (UniProt Q9Y547) 0.054, IBTK (UniProt Q9P2D0) -0.025, IGBP1 (UniProt P78318) -0.012, INPP4A (UniProt Q96PE3) 0.012, IGFBP4 (UniProt P22692) 0.005, INPP5B (UniProt P32019) -0.027, HTT (UniProt P42858) -0.106, HYOU1 (UniProt J3QL06) -0.227, IGHA1 (UniProt P01876) 0.017, IFT57 (UniProt Q9NWB7) -0.03, IFT74 (UniProt Q96LB3) 0.064, IDH3G (UniProt P51553) 0.022, IMPAD1 (UniProt Q9NX62) -0.045, ILF3 isoform 7 (UniProt Q12906) -0.024, HSPBAP1 (UniProt Q96EW2) 0.1, ICAM2 (UniProt P13598) 0.081, INO80E (UniProt Q8NBZ0) 0.04, IGHMBP2 (UniProt P38935) -0.081, IGHG1 (UniProt P01857) 0.335
